Among the data in paper PMC6033292 are binding values, retold here.

By UniProt entry, the sequences of proteins in these tests, tags left out. Where a name states a change or a piece, a line headed by the entry shows the natural chain unless it says otherwise.
UniProt Q8BTI9: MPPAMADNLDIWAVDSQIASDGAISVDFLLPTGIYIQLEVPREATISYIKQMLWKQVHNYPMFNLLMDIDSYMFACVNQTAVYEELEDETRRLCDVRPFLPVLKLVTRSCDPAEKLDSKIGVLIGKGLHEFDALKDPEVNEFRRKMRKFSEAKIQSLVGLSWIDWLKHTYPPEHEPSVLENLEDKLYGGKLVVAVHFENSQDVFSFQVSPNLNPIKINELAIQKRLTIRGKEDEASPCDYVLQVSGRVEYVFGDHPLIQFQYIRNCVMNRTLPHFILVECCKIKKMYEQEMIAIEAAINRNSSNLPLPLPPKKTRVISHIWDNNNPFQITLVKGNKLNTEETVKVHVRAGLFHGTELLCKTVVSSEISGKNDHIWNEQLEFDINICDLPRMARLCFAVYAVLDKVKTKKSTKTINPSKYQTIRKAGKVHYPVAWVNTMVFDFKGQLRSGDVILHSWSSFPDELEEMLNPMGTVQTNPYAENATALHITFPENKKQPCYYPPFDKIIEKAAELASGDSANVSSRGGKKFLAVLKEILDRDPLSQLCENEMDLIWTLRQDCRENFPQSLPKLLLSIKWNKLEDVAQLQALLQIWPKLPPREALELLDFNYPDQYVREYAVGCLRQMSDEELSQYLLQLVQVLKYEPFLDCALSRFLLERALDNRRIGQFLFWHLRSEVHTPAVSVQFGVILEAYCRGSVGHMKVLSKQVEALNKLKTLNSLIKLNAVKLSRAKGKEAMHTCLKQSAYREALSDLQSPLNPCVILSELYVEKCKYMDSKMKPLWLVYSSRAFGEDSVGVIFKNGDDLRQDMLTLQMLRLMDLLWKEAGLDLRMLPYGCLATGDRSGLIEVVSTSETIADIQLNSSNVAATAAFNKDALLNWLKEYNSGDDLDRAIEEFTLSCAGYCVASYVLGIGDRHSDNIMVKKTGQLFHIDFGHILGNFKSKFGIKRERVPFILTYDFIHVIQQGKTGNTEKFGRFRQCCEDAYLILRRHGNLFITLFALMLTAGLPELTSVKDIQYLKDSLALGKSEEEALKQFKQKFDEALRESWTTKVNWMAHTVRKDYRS
UniProt P60766: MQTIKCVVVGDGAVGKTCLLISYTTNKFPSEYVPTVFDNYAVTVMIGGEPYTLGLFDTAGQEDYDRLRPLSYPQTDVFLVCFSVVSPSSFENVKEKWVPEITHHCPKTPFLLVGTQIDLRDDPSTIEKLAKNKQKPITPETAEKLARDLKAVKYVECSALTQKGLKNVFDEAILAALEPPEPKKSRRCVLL

The target in this test is phosphatidylinositol-4,5-bisphosphate 3-kinase catalytic subunit beta (p110β) (mouse (endogenous in ovaries)) (UniProt Q8BTI9). The test can be described thus: co-IP; mouse ovary lysates (70 ovaries at 4 dpp, or 35 ovaries each group) in IP buffer; 5 ug antibody on magnet beads, 30 min at RT, three washes, Western blot; also cultured 2 dpp ovaries with or without ML141, and 1 dpp ovaries transfected with empty, CDC42-DN or CDC42-CA lentivirus. A general note: A western blot detects proteins with antibodies after separation by electrophoresis.

Results are given in words; binding and its absence hold for the method and conditions named. Binding seen in cells or lysates may run through a third protein. Some entries that bind do so weakly or less than the wild type.

Consider “cell division cycle 42 (CDC42) (from UniProt P60766 1-191)”, for which the binding entry is “binds”.

Consider “constitutively active GTP-bound CDC42Q61L (CDC42-CA) (from UniProt P60766 1-191)”, for which the binding result is on record as “binds”.
